Results: patent publication US10851367B2 (Pfizer Inc., priority 2015, dated 2020)
For part of these data: End groups of sequences in plain letters are not given here.

Legend:
[1] = general procedure: Fmoc solid-phase peptide synthesis; Fmoc-Ala-Wang resin; Fmoc-Cys(Trt)-CTC resin; HBTU / N-methylmorpholine; settings: TFA salt
[2] = general procedure: Fmoc solid-phase peptide synthesis; Fmoc-Ala-Wang resin; HBTU / N-methylmorpholine; settings: whole synthesis, scale 5 mmol, TFA salt
[3] = general procedure: Fmoc solid-phase peptide synthesis; Fmoc-Cys(Trt)-CTC resin; HBTU / N-methylmorpholine; settings: whole synthesis, HPLC (HP1090, Phenomenex C18), UV 220 nm, scale of the general procedure 1.0 mmol, 5 mmol, TFA salt
[4] = whole synthesis, 220 nm, scale of the general procedure 1.0 mmol, 5 mmol
[5] = whole synthesis, HPLC (HP1090, Phenomenex C18), UV 220 nm, scale of the general procedure 1.0 mmol, 5 mmol
[6] = late stage modification step, 220 nm

Ac-CGLFHALLHLLHSLWHLLLHA
final HPLC purity [1, 4]: 95.6%

Ac-CGLFHALLHLLHSLWHLLLHA-OH
final HPLC purity [1, 5]: 90% by UV

Ac-Cys(NPys)-GLFHALLHLLHSLWHLLLHA
final HPLC purity [1, 6]: 95.6%
step yield ([1]; late stage modification step): 66%

Ac-Cys(NPys)-PEG3-GLFHALLHLLHSLWHLLLHA
final HPLC purity [1, 6]: 95.4%
step yield ([1]; late stage modification step): 27%

Ac-Cys(NPys)-PEG-WEAKLAKALAKALAKHLAKALAKALKASEA
final HPLC purity [1, 4]: 95.1%

Ac-Cys(NPys)-WEAKLAKALAKALAKHLAKALAKALKASEA
final HPLC purity [1, 4]: 95.7%

Ac-Cys-PEG-Gly-Leu-Phe-His-Ala-Leu-Leu-His-Leu-Leu-His-Ser-Leu-Trp-His-Leu-Leu-Leu-His-Ala-OH
final HPLC purity [1, 5]: 85% by HPLC

Ac-Cys-dPEG4-GLFHALLHLLHSLWHLLLHA
final HPLC purity [1, 4]: 95.3%

Ac-Gly(propargyl)-GLFHALLHLLHSLWHLLLHA
final HPLC purity [1, 4]: 95.4%

CWEAKLAKALAKALAKHLAKALAKALKACEA
final HPLC purity [1, 4]: 97.2%

GLFHALLHLLHSLWHLLLHA
isolated mass [2]: 5.18 g
final HPLC purity [1, 4]: 95.4%

GLFHALLHLLHSLWHLLLHA-Cys(NPys)-OH
final HPLC purity [1, 6]: 95.3%
step yield ([1]; late stage modification step): 25%

GLFHALLHLLHSLWHLLLHAC
final HPLC purity [1, 4]: 95.3%

H-GLFHALLHLLHSLWHLLLHAC-OH
final HPLC purity [3]: 75% by HPLC

SPDP-dPEG8-GLFHALLHLLHSLWHLLLHA
conjugation yield ([1]; conjugation step): 40%

WEAKLAKALAKALAKHLAKALAKALKACEA
final HPLC purity [1, 4]: 95.6%

WEAKLAKALAKALAKHLAKALAKALKASEA-Cys(NPys)-OH
final HPLC purity [1, 4]: 95.8%
